Measured values reported in PubChem BioAssay AID493027 (The Scripps Research Institute Molecular Screening Center, 2011).
Out of some 2,000 compounds screened, about 45 (2%) were called active.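 How the source made its calls: active means inhibition above the screen-wide mean inhibition plus 3 SD (cut at about 44% in these data); inactive means the rest.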 Some of the results follow.

Amino acid sequences for entries named in this document (tags omitted). A change or cut given only in a name is not applied to a line headed by its entry.
UniProt O60240: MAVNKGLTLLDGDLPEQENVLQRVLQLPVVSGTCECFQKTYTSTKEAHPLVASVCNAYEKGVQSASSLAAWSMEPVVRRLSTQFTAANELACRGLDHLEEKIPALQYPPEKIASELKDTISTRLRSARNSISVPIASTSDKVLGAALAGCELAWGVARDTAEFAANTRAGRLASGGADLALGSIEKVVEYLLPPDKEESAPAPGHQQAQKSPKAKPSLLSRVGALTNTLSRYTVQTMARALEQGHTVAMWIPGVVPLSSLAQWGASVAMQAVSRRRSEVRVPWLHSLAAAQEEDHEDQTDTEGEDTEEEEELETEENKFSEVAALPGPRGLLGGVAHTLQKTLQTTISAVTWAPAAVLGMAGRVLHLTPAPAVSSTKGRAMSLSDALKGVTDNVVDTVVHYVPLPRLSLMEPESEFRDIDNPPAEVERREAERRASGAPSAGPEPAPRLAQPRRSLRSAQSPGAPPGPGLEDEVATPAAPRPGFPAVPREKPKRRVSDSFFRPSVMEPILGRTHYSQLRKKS
UniProt Q8WTS1: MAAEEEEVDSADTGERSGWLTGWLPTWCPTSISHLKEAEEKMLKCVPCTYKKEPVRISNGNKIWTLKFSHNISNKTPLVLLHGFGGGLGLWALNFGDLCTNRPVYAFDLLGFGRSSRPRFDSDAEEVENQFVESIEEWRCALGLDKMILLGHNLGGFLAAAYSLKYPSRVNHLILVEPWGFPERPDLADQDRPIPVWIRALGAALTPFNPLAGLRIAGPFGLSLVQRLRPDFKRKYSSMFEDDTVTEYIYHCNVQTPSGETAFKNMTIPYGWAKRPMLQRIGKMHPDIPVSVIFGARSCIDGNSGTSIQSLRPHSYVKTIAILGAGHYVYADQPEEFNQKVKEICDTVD

Target: Perilipin-1 (Homo sapiens) + 1-acylglycerol-3-phosphate O-acyltransferase ABHD5 (Homo sapiens) (UniProt O60240+Q8WTS1)
Experiment: ABHD5-PLIN1 interaction inhibitors, pilot screen, cell lysate, split luciferase complementation, luminescence, NIH validation set (AID 493027);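 further: 0% = DMSO wells with the 100% control not disclosed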
Conditions: split G. princeps luciferase complementation, 4 h; at 7.9 µM, hits give high values

inhibition, active:
O=C(/C=C/c1ccccc1)c1ccccc1 61.4%

inhibition, inactive:
O=C1OCCN1/N=C/c1ccc([N+](=O)[O-])o1 -2.79%, COc1ccc(NC2=C(Cl)C(=O)N(c3ccccc3)C2=O)c(OC)c1 0.22%, CCC(=O)O[C@]1(C(=O)CCl)[C@@H](C)C[C@H]2[C@@H]3CCC4=CC(=O)C=C[C@]4(C)[C@@]3(F)[C@@H](O)C[C@@]21C -6.31%, Cc1ccc(C(=O)N2CC3(C(C)C)CN(C(=O)c4ccc(C)cc4)CC(C(C)C)(C2)C3=O)cc1 -7.75%, CCOc1cccc(N2C(=O)CC(N(CCc3ccc(OC)c(OC)c3)C(=O)CC)C2=O)c1 (stereo not drawn) -6.24%, CN(C)CC/C=C1\c2ccccc2Sc2ccc(Cl)cc21 3.88%, Cc1c(O)c(=O)ccn1C -3.99%, N#Cc1c2c(c(-c3ccccc3)[nH]c1=O)CCCC2 -0.9%, Cc1nc(-c2coc3c(CN(C)C)c(O)ccc3c2=O)cs1 -0.69%, CC(C)c1ccc(/C=C/C(=O)O)cc1 -6.65%, COc1cccc2c(=O)c(C/C=C(/C)Cl)c(C)[nH]c12 2.34%, COc1ccc(C2CNC(=O)C2)cc1OC1CCCC1 (stereo not drawn) -10.7%, COc1ccc(-c2noc(-c3ccccc3-c3ccccc3)n2)cc1 -4.82%, COC(=O)c1[nH]c2ccc(C)cc2c1NC(=O)CN1CCc2cc(OC)c(OC)cc2C1 10.7%, COc1ccc(-c2[nH]ncc2C=O)cc1OC 2.4%, O=C(Nc1ncc2c(n1)CC(c1ccco1)CC2=O)c1ccco1 (stereo not drawn) -2.98%, Cc1nc(NC(CC(C)C)C(=O)O)c2nc(C)oc2n1 (stereo not drawn) -9.74%, Cn1cc(CN2CCN(CCO)CC2)c(-c2ccc(Oc3ccccc3)cc2)n1 2.98%, CCN1CCN(C(=S)c2ccc(OC)cc2)CC1 -5.37%, O=C1Cc2ccccc2C(c2ccccc2)N1 (stereo not drawn) -1.55%, O=C(COc1ccc(F)cc1)OCCN1CCOCC1 -9.55%, CCN(CC)CC#CCOC(=O)C(O)(c1ccccc1)C1CCCCC1 (stereo not drawn) -7.62%, Cc1ncc([N+](=O)[O-])n1CCO -5.5%, O=C(O)c1ccc(C(=O)C(=O)c2ccccc2)cc1 -8.11%, COc1ccc(CCN2CCC(Nc3nc4ccccc4n3Cc3ccc(F)cc3)CC2)cc1 -8.19%, O=C1CC[C@@H](CN(Cc2ccccc2)Cc2cn[nH]c2-c2cc3ccccc3o2)N1 16.7%, CCc1cc2c(=O)c(-c3nc(C)cs3)coc2cc1OC(C)C(=O)NCCO (stereo not drawn) -3.43%, C=CCn1c(SCC(=O)NC2CCCCC2)nc2ccccc2c1=O -4.35%, CN/C(=C/[N+](=O)[O-])NCCSCc1ccc(CN(C)C)o1 -16.8%, O=C(CCCN1CC=C(n2c(=O)[nH]c3ccccc32)CC1)c1ccc(F)cc1 -3.84%, COc1cc2oc(-c3ccc(O)cc3)cc(=O)c2c(OC)c1O 6.44%, CCN(CC)CCNC(=O)c1cc(S(C)(=O)=O)ccc1OC 0.44%, COc1ccc2oc(=O)c(C(=O)Nc3ccccc3-c3ccccc3)cc2c1 -7.96%, O=C(O)c1ccccc1OCCOc1ccccc1 -4.07%, CCn1cc(C(=O)O)c(=O)c2ccc(C)nc21 -9.27%, CC(=O)N(CCC(Cc1ccccc1)c1ccc2c(c1)OCO2)Cc1ccc(Cl)cc1 (stereo not drawn) 5.7%, COc1ccc2cc(CCC(C)=O)ccc2c1 -4.36%, O=c1c2ccccc2nnn1Cc1cccc2ccccc12 7.22%, C#CCN(C)Cc1ccccc1 -12.8%, O=C(O)C1[C@H]2C(=O)N(C3CCCC3)C[C@]23C=C[C@H]1O3 (stereo partly drawn) -11%, CC(=O)N1CC23C=CC(CC2CC12CCCCCC2)O3 (stereo not drawn) -6.35%, CC(=O)Oc1ccc(C2OC(=O)c3ccccc3N2C(C)=O)cc1 (stereo not drawn) 10.1%, COc1ccc(OC)c(-n2c(Cn3c(-c4ccccn4)nc4ccccc43)n[nH]c2=S)c1 -10.2%, CC(C)(C)OC(=O)NCCC(=O)Oc1ccc2ccc(=O)oc2c1 -5.12%, CCc1cc2c(=O)c(-c3nc4ccccc4n3C)coc2c(CN2CCN(C)CC2)c1O -2.41%, COc1cc2nc(N3CCN(C(=O)c4ccco4)CC3)nc(N)c2cc1OC -3.7%, COc1ccc2c(c1O)Cc1ccccc1C2=O 12%, CC1CCCc2sc3ncn(N)c(=N)c3c21 (stereo not drawn) -6.87%, O=c1oc2c(CN3CCCCC3)c(O)ccc2c2c1CCCCC2 2.7%, CC(=O)[C@@H]1[C@@H](C(=O)c2ccc(C)cc2)[C@]2(C(=O)Nc3ccccc32)[C@H]2C=Cc3cc(F)ccc3N12 7.6%, COC(=O)c1ccc(C(=O)OC)c(NC(=O)C(C)C)c1 -14.8%, COCc1cc(=O)[nH]c(Nc2nc3ccccc3o2)n1 -0.24%, O=C(c1cccnc1)N1N=C(C2CC2)CC1(O)C(F)(F)F (stereo not drawn) -0.45%, COC(=O)C1=C(C)N(C)C(=S)NC1c1ccc(Cl)cc1 (stereo not drawn) -2.33%, OCCN1CCN(CCCN2c3ccccc3Sc3ccc(Cl)cc32)CC1 6.03%, CCn1c(O)c(/C=C2\C=Nc3ccccc32)sc1=O 9.02%, Nc1ccc(S(=O)(=O)c2ccc(N)cc2)cc1 -14.4%, O=C(O)c1ccccc1C(=O)OCCCCOC(=O)c1ccccc1C(=O)O -3.61%, CC(=O)OCC#CCSc1nc2ccccc2n1C -4.07%, CCCC(=O)O[C@]1(C(=O)COC(C)=O)CC[C@H]2[C@@H]3C[C@H](F)C4=CC(=O)C=C[C@]4(C)[C@@]3(F)[C@@H](O)C[C@@]21C 11.5%, Cn1nnnc1SCC1=C(C(=O)O)N2C(=O)[C@@H](NC(=O)[C@H](O)c3ccccc3)[C@H]2SC1 2.92%, O=C(NNC(=O)c1cccs1)c1ccco1 -10.1%, CC(=O)Nc1ccc2[nH]c(C)c(CC=C(Cl)Cl)c(=O)c2c1 -6.23%, O=c1cc(-c2ccccc2)oc2cc(OCc3ccccc3)cc(O)c12 -12.7%, C/C(=N\N=C1\NC(=O)C(CC(=O)Nc2ccc(Cl)cc2)S1)c1ccco1 (stereo not drawn) 11.1%, O=C(COc1ccc2c(-c3ccccc3)cc(=O)oc2c1)NCc1cccs1 5.17%, CCN1CCN(C(=O)N[C@@H](C(=O)N[C@@H]2C(=O)N3[C@@H]2SC(C)(C)[C@@H]3C(=O)O)c2ccccc2)C(=O)C1=O -2.98%, CCc1cc2c(C)cc(=O)oc2cc1OC(=O)C1CCCN1C(=O)OC(C)(C)C (stereo not drawn) 1.95%, COc1cc(CNc2nnnn2C)ccc1OCc1ccc(F)cc1Cl 4.34%, CCc1cccc(OC2OC(CO)C(O)C(O)C2NC(C)=O)c1 (stereo not drawn) -10.8%, CCCc1c(OCCCCc2nn[nH]n2)ccc(C(C)=O)c1O 6.17%, C=CCc1cccc2cc(C(=O)Nc3ccc(CC(=O)O)cc3)c(=O)oc12 2.62%, Cc1ccc(CN2CCN(Cc3cn[nH]c3C3CCCCC3)CC2CCO)cc1 (stereo not drawn) -2.76%, CCCC(=O)Nc1ncnc2c1ncn2[C@@H]1O[C@@H]2COP(=O)(O)O[C@H]2[C@H]1OC(=O)CCC -11.2%, O=C(N1CCCCC1)C1(c2ccccc2)CCOCC1 -5.12%, CC(C)Cc1cc(C(=O)N2CCC(N3CCC(C(=O)N4CCCC4)CC3)CC2)n[nH]1 -2.27%, Nc1nc(SCc2ccc([N+](=O)[O-])cc2)c2ncn(C3OC(CO)C(O)C3O)c2n1 (stereo not drawn) -5.1%, CCOc1ccc2nc(NC(=O)NC3CCCCC3)sc2c1 -5.14%, COc1cc(COc2ccc3c(C)c(Cc4ccccc4)c(=O)oc3c2)cc(OC)c1OC 11.2%, COc1ccc(CC(=O)NCC2(c3ccc(OC)c(OC)c3)CCOCC2)cc1 -9.55%, O=C(O)[C@H](Cc1ccccc1)NC(=O)N1CCC(Cc2ccccc2)CC1 -7.12%, C[C@]12CCC(=O)C=C1CC[C@@H]1[C@@H]2[C@@H](O)C[C@@]2(C)[C@H]1CC[C@]2(O)C(=O)COC(=O)CCC(=O)O 1.23%, CC(C)(C)NC[C@H](O)COc1nsnc1N1CCOCC1 0.59%, COc1ccc2c(=O)c(-c3cnn(-c4ccccc4)c3)c(C)oc2c1 15%, Fc1cccc(Cc2noc(CN3CCN(c4cnccn4)CC3)n2)c1 -16.5%, CCOc1ccc(C(=O)Nc2ccc(N3CCN(C(C)=O)CC3)cc2)cc1[N+](=O)[O-] 4.78%, Cn1c(Oc2ccc3c(c2)OCO3)nc2c1c(=O)n(Cc1ccccc1)c(=O)n2C -2.14%, O=C(Cc1ccccc1)NCC(=O)OCC(=O)c1ccccc1Cl -13.7%, Cc1cnc(C(=O)N2CCCC(C(=O)c3ccc(Cl)cc3C)C2)cn1 (stereo not drawn) 1.67%, COc1ccc(-c2nc(C)c(C(C)=O)n2O)cc1OC 7.48%, CC(=O)NC(NC(=S)N1CCCCCC1)C(Cl)(Cl)Cl (stereo not drawn) -11.6%, O=C(NC(CO)Cc1ccc([N+](=O)[O-])cc1)C(Cl)Cl (stereo not drawn) 3.77%
